Experimental data as given in publication PMC4489804.
No constants are given. Whether binding was seen depends on the method and setting. For part of these data: Binding can be weak; no strength is given. For part of these data: Tags and fused reporters may be left off the sequences shown. For part of these data: Binding seen in cells or lysates may run through a third protein.

Chains of the proteins cited; added tags and fusions are not shown. Lines headed by an entry give the natural chain unless they say otherwise; changes in a name come on top.
UniProt Q9SJF3: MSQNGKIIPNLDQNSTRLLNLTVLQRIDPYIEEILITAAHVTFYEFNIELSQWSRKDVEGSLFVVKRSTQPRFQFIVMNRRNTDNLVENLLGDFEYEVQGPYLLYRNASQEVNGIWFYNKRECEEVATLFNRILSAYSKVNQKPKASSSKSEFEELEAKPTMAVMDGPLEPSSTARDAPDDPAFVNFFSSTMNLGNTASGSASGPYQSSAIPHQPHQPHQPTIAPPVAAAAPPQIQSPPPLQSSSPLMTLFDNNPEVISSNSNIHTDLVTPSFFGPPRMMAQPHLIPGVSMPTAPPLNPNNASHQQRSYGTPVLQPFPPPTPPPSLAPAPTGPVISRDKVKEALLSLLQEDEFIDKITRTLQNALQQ
UniProt F4HZB2: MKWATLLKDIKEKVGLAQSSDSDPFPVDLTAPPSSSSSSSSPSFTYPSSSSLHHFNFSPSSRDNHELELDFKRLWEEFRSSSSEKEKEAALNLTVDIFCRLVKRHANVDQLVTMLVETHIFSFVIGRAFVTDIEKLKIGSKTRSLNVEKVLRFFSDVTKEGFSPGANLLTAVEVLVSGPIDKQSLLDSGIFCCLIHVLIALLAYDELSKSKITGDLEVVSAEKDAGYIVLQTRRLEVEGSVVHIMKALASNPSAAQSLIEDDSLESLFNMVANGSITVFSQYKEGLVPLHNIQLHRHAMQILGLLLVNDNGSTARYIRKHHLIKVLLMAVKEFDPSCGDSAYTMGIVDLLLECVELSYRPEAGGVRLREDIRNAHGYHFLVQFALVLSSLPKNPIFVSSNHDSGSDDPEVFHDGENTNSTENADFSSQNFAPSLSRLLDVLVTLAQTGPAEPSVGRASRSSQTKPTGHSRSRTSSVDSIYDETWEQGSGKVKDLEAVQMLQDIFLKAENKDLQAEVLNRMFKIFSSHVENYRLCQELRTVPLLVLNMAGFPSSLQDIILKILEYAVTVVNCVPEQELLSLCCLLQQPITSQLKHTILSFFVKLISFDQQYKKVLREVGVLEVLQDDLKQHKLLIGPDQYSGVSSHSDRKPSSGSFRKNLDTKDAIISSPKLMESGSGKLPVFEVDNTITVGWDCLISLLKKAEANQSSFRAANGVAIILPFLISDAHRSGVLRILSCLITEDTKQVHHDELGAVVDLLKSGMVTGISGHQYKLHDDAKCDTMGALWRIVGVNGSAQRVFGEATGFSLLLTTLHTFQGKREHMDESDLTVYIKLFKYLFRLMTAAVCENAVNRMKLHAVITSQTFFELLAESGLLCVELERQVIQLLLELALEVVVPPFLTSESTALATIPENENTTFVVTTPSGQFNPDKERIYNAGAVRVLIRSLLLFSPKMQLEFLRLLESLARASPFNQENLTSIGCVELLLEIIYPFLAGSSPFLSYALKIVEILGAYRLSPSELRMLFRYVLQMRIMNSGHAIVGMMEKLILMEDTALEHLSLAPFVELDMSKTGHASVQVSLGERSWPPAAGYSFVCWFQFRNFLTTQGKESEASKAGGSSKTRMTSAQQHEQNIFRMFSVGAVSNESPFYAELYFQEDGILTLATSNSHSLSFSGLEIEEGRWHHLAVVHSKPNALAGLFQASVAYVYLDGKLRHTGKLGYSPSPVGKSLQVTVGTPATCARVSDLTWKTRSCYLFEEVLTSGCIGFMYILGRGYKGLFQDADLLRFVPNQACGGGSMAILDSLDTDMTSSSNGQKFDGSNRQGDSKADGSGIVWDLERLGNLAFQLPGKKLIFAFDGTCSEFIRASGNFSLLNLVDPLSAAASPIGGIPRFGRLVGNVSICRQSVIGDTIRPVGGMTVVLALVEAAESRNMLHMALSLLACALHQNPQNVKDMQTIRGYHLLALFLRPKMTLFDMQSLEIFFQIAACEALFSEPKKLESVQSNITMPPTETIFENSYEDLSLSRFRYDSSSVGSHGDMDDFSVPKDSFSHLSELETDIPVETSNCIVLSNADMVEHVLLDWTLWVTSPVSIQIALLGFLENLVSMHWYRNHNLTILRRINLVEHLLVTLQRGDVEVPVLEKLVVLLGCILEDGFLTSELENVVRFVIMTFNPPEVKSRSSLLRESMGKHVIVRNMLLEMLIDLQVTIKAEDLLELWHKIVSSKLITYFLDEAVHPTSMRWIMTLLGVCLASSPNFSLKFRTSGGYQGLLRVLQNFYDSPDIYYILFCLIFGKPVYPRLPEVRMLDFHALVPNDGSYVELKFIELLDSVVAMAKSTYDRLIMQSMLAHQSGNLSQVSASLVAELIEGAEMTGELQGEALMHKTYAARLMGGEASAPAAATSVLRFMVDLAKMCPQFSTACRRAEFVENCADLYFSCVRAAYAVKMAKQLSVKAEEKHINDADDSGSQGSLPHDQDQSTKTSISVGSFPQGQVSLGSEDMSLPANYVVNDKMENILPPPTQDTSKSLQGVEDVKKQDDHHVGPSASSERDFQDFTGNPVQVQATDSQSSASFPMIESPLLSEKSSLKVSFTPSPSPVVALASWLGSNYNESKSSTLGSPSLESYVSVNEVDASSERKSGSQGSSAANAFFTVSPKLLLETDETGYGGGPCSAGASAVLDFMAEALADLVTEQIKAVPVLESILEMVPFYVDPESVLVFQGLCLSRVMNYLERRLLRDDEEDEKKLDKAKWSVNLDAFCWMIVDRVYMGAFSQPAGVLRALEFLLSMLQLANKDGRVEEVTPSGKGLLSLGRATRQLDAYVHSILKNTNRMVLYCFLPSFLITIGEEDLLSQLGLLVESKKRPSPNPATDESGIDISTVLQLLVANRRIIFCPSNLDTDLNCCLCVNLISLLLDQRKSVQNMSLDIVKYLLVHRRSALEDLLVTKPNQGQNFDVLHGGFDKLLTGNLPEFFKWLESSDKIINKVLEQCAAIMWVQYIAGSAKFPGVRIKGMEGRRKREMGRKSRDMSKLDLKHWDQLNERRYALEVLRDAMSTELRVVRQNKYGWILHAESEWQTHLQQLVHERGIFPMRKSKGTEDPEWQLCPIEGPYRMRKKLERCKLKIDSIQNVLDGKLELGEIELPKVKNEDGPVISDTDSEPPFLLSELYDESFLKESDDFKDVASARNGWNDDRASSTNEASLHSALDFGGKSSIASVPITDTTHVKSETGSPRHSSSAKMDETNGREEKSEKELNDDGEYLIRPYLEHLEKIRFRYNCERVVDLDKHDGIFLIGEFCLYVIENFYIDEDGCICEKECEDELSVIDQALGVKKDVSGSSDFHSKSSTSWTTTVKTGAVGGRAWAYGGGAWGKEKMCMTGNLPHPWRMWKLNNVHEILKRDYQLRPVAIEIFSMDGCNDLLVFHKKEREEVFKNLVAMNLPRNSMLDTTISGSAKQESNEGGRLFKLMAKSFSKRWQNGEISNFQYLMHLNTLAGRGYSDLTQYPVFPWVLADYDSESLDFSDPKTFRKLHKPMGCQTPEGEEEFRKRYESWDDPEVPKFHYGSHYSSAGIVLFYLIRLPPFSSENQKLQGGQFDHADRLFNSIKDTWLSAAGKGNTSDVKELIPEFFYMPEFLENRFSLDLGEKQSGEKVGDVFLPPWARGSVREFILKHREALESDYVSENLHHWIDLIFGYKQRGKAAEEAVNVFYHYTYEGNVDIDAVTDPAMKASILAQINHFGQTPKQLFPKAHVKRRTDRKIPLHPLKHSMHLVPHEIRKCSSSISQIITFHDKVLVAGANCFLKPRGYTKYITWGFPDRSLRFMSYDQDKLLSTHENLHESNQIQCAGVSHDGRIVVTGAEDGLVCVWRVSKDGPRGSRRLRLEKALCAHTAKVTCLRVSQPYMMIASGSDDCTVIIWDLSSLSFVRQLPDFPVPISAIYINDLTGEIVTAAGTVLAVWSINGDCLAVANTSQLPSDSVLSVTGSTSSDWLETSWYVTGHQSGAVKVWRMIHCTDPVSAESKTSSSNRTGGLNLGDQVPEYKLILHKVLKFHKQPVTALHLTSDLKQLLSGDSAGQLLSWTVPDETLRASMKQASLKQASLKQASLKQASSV
UniProt Q92636: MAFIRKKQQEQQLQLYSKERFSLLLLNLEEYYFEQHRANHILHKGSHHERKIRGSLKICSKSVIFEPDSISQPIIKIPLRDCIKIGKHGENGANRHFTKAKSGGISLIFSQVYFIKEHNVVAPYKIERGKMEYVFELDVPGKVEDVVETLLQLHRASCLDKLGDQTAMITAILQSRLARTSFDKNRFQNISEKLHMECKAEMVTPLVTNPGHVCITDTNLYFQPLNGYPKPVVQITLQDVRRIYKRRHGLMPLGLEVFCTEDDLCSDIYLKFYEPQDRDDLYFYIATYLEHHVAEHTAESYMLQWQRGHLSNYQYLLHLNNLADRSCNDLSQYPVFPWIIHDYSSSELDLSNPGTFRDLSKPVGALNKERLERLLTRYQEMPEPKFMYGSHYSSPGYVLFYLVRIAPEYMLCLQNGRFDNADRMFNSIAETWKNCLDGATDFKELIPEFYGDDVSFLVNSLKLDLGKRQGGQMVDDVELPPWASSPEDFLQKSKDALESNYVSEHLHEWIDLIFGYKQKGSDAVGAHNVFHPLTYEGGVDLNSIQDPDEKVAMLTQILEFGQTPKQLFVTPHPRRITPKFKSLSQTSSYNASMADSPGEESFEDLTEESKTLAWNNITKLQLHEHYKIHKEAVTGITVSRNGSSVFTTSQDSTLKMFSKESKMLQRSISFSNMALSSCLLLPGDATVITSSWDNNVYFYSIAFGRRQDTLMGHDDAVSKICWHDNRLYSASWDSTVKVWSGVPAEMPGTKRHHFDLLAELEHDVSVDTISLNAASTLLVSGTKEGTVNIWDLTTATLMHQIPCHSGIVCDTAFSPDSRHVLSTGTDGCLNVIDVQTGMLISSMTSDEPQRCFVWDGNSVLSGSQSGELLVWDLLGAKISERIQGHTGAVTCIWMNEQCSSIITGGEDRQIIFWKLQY
UniProt Q9FY89: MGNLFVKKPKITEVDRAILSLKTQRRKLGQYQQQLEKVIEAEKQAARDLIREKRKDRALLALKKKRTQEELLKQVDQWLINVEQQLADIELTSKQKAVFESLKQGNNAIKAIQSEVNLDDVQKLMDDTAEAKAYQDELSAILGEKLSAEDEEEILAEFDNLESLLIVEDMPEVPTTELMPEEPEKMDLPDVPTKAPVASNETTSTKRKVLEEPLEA

Assays:
[1] = molecular target: YFPC-DCP1 (Arabidopsis thaliana) (UniProt Q9SJF3); experiment: split reporter; BiFC with YFPN and YFPC fusions under the 35S promoter in transiently transformed N. benthamiana leaf epidermis cells, 72 h post-transfection; DCP2-mCHERRY or free RFP coexpressed
[2] = molecular target: SPI-PBW, N-terminally fused to the GAL4 Binding Domain (BD) (Arabidopsis thaliana) (UniProt F4HZB2); experiment: two-hybrid; SPI-PBW or FAN-PB fused to the GAL4 BD, DCP1 homologs fused to the GAL4 AD; dropout medium -L -W -H with 3 mM 3AT
[3] = molecular target: SPI-PBW, N-terminally fused to the GAL4 Binding Domain (BD) (Arabidopsis thaliana) (UniProt F4HZB2); experiment: two-hybrid; SPI-PBW fused to the GAL4 BD as bait, preys fused to the GAL4 AD; dropout medium -L -W -H with 5 mM 3AT; DCP1 first found in cDNA library screens
[4] = molecular target: FAN-PB N-terminally fused to the GAL4 Binding Domain (BD) (human) (UniProt Q92636); experiment: two-hybrid; SPI-PBW or FAN-PB fused to the GAL4 BD, DCP1 homologs fused to the GAL4 AD; dropout medium -L -W -H with 3 mM 3AT

Molecule | binding [2] | binding [3] | further results
VPS20.2-YFPN (from UniProt Q9FY89 1-216) | – | – | binding [1]: no binding
human DCP1b, N-terminal fused to the GAL4 Activation Domain (AD) (protein, UniProt Q8IZD4 1-617) MAAVAAGGLVGKGRDISLAALQRHDPYINRIVDVASQVALYTFGHRANEWEKTDVEGTLFVYTRSASPKHGFTIMNRLSMENRTEPITKDLDFQLQDPFLLYRNARLSIYGIWFYDKEECQRIAELMKNLTQYEQLKAHQGTGAGISPVILNSGEGKEVDILRMLIKAKDEYTKCKTCSEPKKITSSSAIYDNPNLIKPIPVKPSENQQQRIPQPNQTLDPEPQHLSLTALFGKQDKATCQETVEPPQTLHQQQQQQQQQQEKLPIRQGVVRSLSYEEPRRHSPPIEKQLCPAIQKLMVRSADLHPLSELPENRPCENGSTHSAGEFFTGPVQPGSPHNIGTSRGVQNASRTQNLFEKLQSTPGAANKCDPSTPAPASSAALNRSRAPTSVTPVAPGKGLAQPPQAYFNGSLPPQTVGHQAHGREQSTLPRQTLPISGSQTGSSGVISPQELLKKLQIVQQEQQLHASNRPALAAKFPVLAQSSGTGKPLESWINKTPNTEQQTPLFQVISPQRIPATAAPSLLMSPMVFAQPTSVPPKERESGLLPVGGQEPPAAATSLLLPIQSPEPSVITSSPLTKLQLQEALLYLIQNDDNFLNIIYEAYLFSMTQAAMKKTM | binds | – | binding [4]: binds

The next lines start with results.

binding [2] | binding [3] | Molecule | further results
binds | – | yeast DCP1p, N-terminal fused to the GAL4 Activation Domain (AD) (protein, UniProt Q12517 1-231) MTGAATAAENSATQLEFYRKALNFNVIGRYDPKIKQLLFHTPHASLYKWDFKKDEWNKLEYQGVLAIYLRDVSQNTNLLPVSPQEVDIFDSQNGSNNIQVNNGSDNSNRNSSGNGNSYKSNDSLTYNCGKTLSGKDIYNYGLIILNRINPDNFSMGIVPNSVVNKRKVFNAEEDTLNPLECMGVEVKDELVIIKNLKHEVYGIWIHTVSDRQNIYELIKYLLENEPKDSFA | –
– | no binding | … PROTEIN5 (DCP5) fused to the GAL4 Activation Domain (protein, UniProt Q9C658 1-611) MAADNTGSKSSSAADSYVGSLISLTSKSEIRYEGILYNINTDESSIGLQNVRSFGTEGRKKDGPQVPPSDKVYEYILFRGTDIKDLQVKASPPVQPPASTINNDPAIIQSHYPSPMPTSGSLPSTASGSLPDISSHNGQPGQHGMGFQNAMPLYQPGGNLGSWGASPQPPMYWQGFYTPPPNGLPQLHQQSLIRPPHGLPMPNSLQQPLQYPNFNTPPPPTGSSSLQGSSLPEAPSSLFPFSTSSQMLAPSSLPFPGLPPVTLSSSLQSTLQSAPSPSLASEMAPPLLSNKAPITAPPTLPQDTNLLSFSLSTTRATEASTGLPLSNKPSVVTGPISPPQTTPLTSAPVAGVSSSISQDKPKPLLVTPGQLLQSGSSAVSLSPPSTNADKDVEVVQVSSSAGLEQSVPVTSEAQPPILPLPSSARPTQKPNGHSFPNHNGYRGRGRGRGRGAGRSHQVMKFTEDFDFTAMNEKFNKDEVWGHLGKSTTLDGDEDDDSPTVDEAELPKIEAKPVYNKDDFFDSLSSNTIDRESQNSRPRFSEQRKLDTETFGEFSRFRGGRGGRGGYGRNNGYSRGGYGGRGYGGYGGRGGGGGGYGYGGRGQGRGVSNRTT | –
– | no binding | VARICOSE (VCS) fused to the GAL4 Activation Domain (protein, UniProt Q9LTT8 1-1344) MASSPGNTNPHNTPPFDLGILFKPSSNPYPPPAASYPPPTGPFLHNQYDQQHYAPPGISAQPSPVTQQQQDVSSSSAATNLHPQRTLSYPTPPLNLQSPRSNHNPGTHILALLNNTNNGAPVANQEPSHQLPVVNHNEIARSFPGGSGPIRVPSCKLPKGRRLIGEHAVYDVDVRLQGEIQPQLEVTPITKYGSDPQLVVGRQIAVNKVYICYGLKGGNIRVLNINTALRSLFRGHSQRVTDMAFFAEDVDMLASVSLDGKVFVWKISEGSEGEDQPQITGKIVLALQILGEEDTKHPRVCWHCHKQEILVVSIGKHVLRIDTTKVGRGEVFSAEAPLQCPLDKLIDGVQIVGKHDGEVTDLSMCQWMTTRLVSSSVDGTIKIWQDRKAQPLVVLRPHDGHPVSSATFVTSPERPDHIILITGGPLNREMKIWVSAGEEGWLLPADAESWRCTQTLDLKSSTEPRAEEAFFNQVIALSEAGLLLLANAKRNALYAVHLDYGSSPVGTRMDYLSEFTVTMPILSFIGTNDPPEEPIVKVYCVQTLAIQQYTLDLCLCLPPPIENMGLEKSDSSVSREANLVEGMSEPSGLKPTDLPSVDSVPKPSIIVNRSESANKLSFPSAEATSQAIVPPNGEPKTSGLPSQTSGAGSAYATLPQLPLSPRLSSKLSGYHTPVEAIEPVIPHHELGGKTPSADYSVDRQMDAVGERNLDVSSVEEISRSKDSNVTPDDDVSGMRSPSAFFKHPTHLVTPSEILMGVSSAEASITTEDRRDRDANIQDVNNDPRDTEVEVKEISEARSTQNGEINDHDETENCTSENREKVFCSQVSNLSTEMARDCYPSTEGTFIPGESKAYGQPIKAGDESGVDSRGGPAKLLKGKKQKAKNSQGPGLSSTSSNVANLADSFNEQSQSLSHPMTDLLPQLLAMQETMNQVMASQKEMQRQLSNAATGPIGKESKRLEVALGRMIEKSSKSNADALWARIQEETVKNEKALRDHAQQIVNATTNFMSKELNAMFEKTIKKELAAIGPALARSVVPVIEKTVSSAITESFQRGIGDKAVNQLDKSVNIKLEATVARQIQAQFQTSGKQALQEGLRSSVESSVIPSFEKACKAMFDQIDSAFQKGIAEHTNAAQQRFDSGHSQLAHTLKESITSASSVAQALSRELAETQRNLLALAAAGANSGGSNSLVTQLSGGPLGALLEKVEAPMDPTTELSRLISERKYEESFTSALQRSDVSIVSWLCSQVDLRGLLAMNPLPLSQGVLLSLLQQLACDISKDTSRKLAWMTDVVAAINPSDQMIAVHARPIFEQVYQILHHHRNAPGSDVSAIRLIMHVINSMLMGCK | –
